Measurements published in paper doi:10.1101/2020.10.20.347385.
Numbering of substitutions follows the chain as printed. Results are given in words; binding and its absence hold for the method and conditions named. Binding seen in cells or lysates may run through a third protein. Some entries that bind do so weakly or less than the wild type. For part of these data: Tags and fused reporters may be left off the sequences shown. Blank lines part the entries; values can stand above or below the binder they belong to.

Columns and labels:
Assay in all cases: co-IP
[1] = biological target: T1, Vangl1, murine, endogenous (mouse (endogenous in IMCD3)) (UniProt Q80Z96)
T1 sequence: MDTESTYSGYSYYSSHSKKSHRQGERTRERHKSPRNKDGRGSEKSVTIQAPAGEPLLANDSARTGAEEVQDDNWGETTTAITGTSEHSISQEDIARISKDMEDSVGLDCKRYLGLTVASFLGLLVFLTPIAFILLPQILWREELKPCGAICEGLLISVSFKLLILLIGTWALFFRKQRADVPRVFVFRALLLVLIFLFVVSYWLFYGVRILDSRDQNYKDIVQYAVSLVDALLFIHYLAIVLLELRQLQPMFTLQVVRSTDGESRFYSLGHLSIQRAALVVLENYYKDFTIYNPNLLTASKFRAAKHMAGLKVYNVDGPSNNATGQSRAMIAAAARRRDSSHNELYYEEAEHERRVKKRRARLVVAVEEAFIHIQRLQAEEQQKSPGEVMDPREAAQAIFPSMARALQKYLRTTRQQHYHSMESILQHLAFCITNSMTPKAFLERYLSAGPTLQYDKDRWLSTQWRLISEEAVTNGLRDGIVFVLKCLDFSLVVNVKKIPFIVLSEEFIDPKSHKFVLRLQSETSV

[2] = biological target: T2, Vangl2 (canonical 521 aa isoform), human, endogenous (human (endogenous in SKBR7 and HEK 293T)) (UniProt Q9ULK5)
T2 sequence: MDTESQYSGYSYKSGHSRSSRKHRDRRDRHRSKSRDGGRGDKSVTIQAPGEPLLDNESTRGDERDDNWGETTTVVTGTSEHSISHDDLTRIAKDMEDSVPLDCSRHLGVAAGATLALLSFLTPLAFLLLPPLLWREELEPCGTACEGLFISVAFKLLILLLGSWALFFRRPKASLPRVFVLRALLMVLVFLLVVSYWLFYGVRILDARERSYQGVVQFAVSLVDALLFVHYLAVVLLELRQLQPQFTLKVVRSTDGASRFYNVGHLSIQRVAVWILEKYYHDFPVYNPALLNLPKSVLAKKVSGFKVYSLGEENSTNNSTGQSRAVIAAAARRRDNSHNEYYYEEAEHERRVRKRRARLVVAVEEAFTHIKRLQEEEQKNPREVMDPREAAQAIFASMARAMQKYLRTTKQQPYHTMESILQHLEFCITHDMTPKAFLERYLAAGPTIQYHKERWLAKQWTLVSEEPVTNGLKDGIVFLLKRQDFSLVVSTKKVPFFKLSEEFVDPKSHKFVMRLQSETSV

[3] = biological target: T3, Vangl2 expressed from pVangl2 (human) (UniProt Q9ULK5)
T3 sequence: T2 sequence

binding [1]: binds
B1: Vangl2 (canonical isoform), murine, endogenous (protein, UniProt Q91ZD4 1-521)
chain: T2 sequence with G38S, T114I, V194I

binding [2]: binds
B2: Vangl1, human, endogenous (protein, UniProt Q8TAA9 1-524)
chain: MDTESTYSGYSYYSSHSKKSHRQGERTRERHKSPRNKDGRGSEKSVTIQPPTGEPLLGNDSTRTEEVQDDNWGETTTAITGTSEHSISQEDIARISKDMEDSVGLDCKRYLGLTVASFLGLLVFLTPIAFILLPPILWRDELEPCGTICEGLFISMAFKLLILLIGTWALFFRKRRADMPRVFVFRALLLVLIFLFVVSYWLFYGVRILDSRDRNYQGIVQYAVSLVDALLFIHYLAIVLLELRQLQPMFTLQVVRSTDGESRFYSLGHLSIQRAALVVLENYYKDFTIYNPNLLTASKFRAAKHMAGLKVYNVDGPSNNATGQSRAMIAAAARRRDSSHNELYYEEAEHERRVKKRKARLVVAVEEAFIHIQRLQAEEQQKAPGEVMDPREAAQAIFPSMARALQKYLRITRQQNYHSMESILQHLAFCITNGMTPKAFLERYLSAGPTLQYDKDRWLSTQWRLVSDEAVTNGLRDGIVFVLKCLDFSLVVNVKKIPFIILSEEFIDPKSHKFVLRLQSETSV

binding [3]: binds
B3: GFP-Vangl1 (protein, UniProt Q8TAA9 1-524)
chain: B2 chain
